Our source for the binding values is article PMC11480233, “Structural insights into the Caprin-2 HR1 domain in canonical Wnt signaling” (The Journal of Biological Chemistry, 2024).

These are yes or no findings as the source states them, for the method shown. Some binding calls cover weakened binding; strength is not graded here.

In this assay the target is HR1 domain of human Caprin-2 (aa S102-K351) (human) (UniProt Q6IMN6). The assay is described as follows: crystal structure; hCap2_HR1 crystals from 12 to 15% PEG3350, 20 mM lithium chloride; space group C2; two copies in the asymmetric unit; phased by Se-MET SAD; both purified.

B1: HR1 domain of human Caprin-2 (aa S102-K351) (domain or fragment, UniProt Q6IMN6 102-351, looked up)
chain: SPLQSTLSSAASPSQAYETYIENGLICLKHKIRNIEKKKLKLEDYKDRLKSGEHLNPDQLEAVEKYEEVLHNLEFAKELQKTFSGLSLDLLKAQKKAQRREHMLKLEAEKKKLRTILQVQYVLQNLTQEHVQKDFKGGLNGAVYLPSKELDYLIKFSKLTCPERNESLSVEDQMEQSSLYFWDLLEGSEKAVVGTTYKHLKDLLSKLLNSGYFESIPVPKNAKEKEVPLEEEMLIQSEKKTQLSKTESVK
notes: Caprin-2, human, HR1 domain construct, residues S102-K351, cloned from full-length human Caprin-2; Modified pET-28a vector with a TEV site in place of the thrombin site; A SeMet triple mutant I217M/L251M/L301M of the same limits was used for phasing; also called hCap2_HR1; Cap2_HR1
For the molecule B1, the binding result is reported as “binds”.
